Assay results as given in patent US8343580B2, “Organometallic compounds” (Rohm and Haas Electronic Materials LLC, priority 2009, dated 2013).

Legend:
[1] = Resistivity of Ru films grown by DLI deposition, 4-point probe method; settings: deposition temperature 350° C., procedure of Example 12
Procedure: Ruthenium films were grown using a solution of ruthenium carbamoyl precursor from Example 1 in a solvent using a DLI system. The solvent was purified by distillation from calcium hydride under inert nitrogen gas atmosphere. The freshly distilled solvent was used for preparing the diluted solution of ruthenium carbamoyl precursor, N,N′-di-tert-butylacetamidinato-N,N′-di-tert-butylacetamidinatocarbamoyl dicarbonyl Ruthenium(II). Suitable solvents were chosen from THF, toluene, a mixture of cyclohexylbenzene and bicyclohexyl (9:1, v/v), 1,2,3,4-tetrahydronaphthalene, or diethylbenzene. In one experiment, the concentration of the ruthenium carbamoyl precursor was 0.08 M in a mixture of cyclohexylbenzene and bicyclohexyl (9:1, v/v). The solution was filtered in order to ensure particle-free environment. The solution was then transported from its container to a vaporizer unit of the DLI system. The vaporization temperature was set at 100° C. to 160° C. Ammonia was used as a second reactant to deposit metallic ruthenium films. In some deposition runs, O2 at low concentrations in N2 (0-30% v/v, preferably 1-10%) was used as the second reagent. The reactor was enabled for depositions in either of ALD, CVD, Pulse CVD, or AVD modes. The carrier and purging gases used were N2 or argon or helium, and their flow rates ranged from 50 to 500 sccm, respectively. […]

[2] = ALD growth of ruthenium films with ammonia as second precursor; settings: wafer at 300° C.
Procedure: Ruthenium films are grown using the N,N′-di-tert-butylacetamidinato-N,N′-di-tert-butylacetamidinatocarbamoyl dicarbonyl ruthenium(II) (“Ru(AMD)-Cbm”) from Example 1. Ru(AMD)-Cbm (1 g) is placed into a source boat from an ASM F-120 ALD reactor under N2. The source temperature is set at 140° C. Ammonia is used as the second precursor to affect the atomic layer deposition of ruthenium films. The primary and secondary purging gases are N2, and their flow rates are set at 400 and 300 sccm, respectively. A 10 cm (4 inch) diameter wafer of p-type silicon (Cz, single side polished) is placed in the ALD chamber and heated at 300° C. The pulse sequence is adjusted as follows: precursor/N2 purge at 1 s/3 s, while the ammonia flow from a high purity ammonia source is kept on at 40 sccm during the deposition. 1000 Cycles are applied for the Ru thin film deposition.
A smooth, highly uniform Ru film is expected to be grown on the wafer after 1000 cycles. The film thickness is expected to be more than 125 nm, thereby affording the un-optimized thin film growth rate of about 1.25 Å/cycle.

Row | Structure (SMILES) | Ru film resistivity [1] | Un-optimized thin film growth rate ([2]; 1000 cycles) | Film thickness ([2]; after 1000 cycles, source 140° C.)
1 | CC1=[N+](C(C)(C)C)[Ru-4]2([C]#[O+])([C]#[O+])([C](=O)N1C(C)(C)C)[N](C(C)(C)C)C(C)=[N+]2C(C)(C)C [Ru-Cbm, N,N′-di-tert-butylacetamidinato-N,N′-di-tert-butylacetamidinatocarbamoyl dicarbonyl Ruthenium(II)] | 200 μohm·cm | about 1.25 Å/cycle | more than 125 nm
2 | CC(=NC(C)(C)C)[N]([Ru][N](C(C)=NC(C)(C)C)C(C)(C)C)C(C)(C)C.[C-]#[O+].[C-]#[O+] [Ru-AMD, bis(N,N′-di-tert-butylacetamidinato) dicarbonyl Ruthenium(II), reference compound] | > 500 μohm·cm | – | –
